Results taken from the supplement of paper PMC9135407.
Several values for one entry are separate records, joined by “and”; a condition that tells them apart may be missing. Identical values can stand only once. Counter-ions that a name gives are not always drawn. ± gives the standard deviation of the averaged measurements. The list shows a part of the results. Baselines shift from plate to plate; read single values as rough.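 Culture-activated primary human stellate myofibroblasts, where regained lipid droplets signal inactivation. Value: share of Hoechst-counted cells above a per-plate Bodipy cutoff, in duplicate wells, with DMSO negative and nortriptyline positive controls on each plate. Hits: a control-normalized score above the plate's top-tenth-percentile nortriptyline wells, or one of a plate's three best wells. Final well concentrations are not given.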

Tested on: primary human hepatic stellate cells (donor 1)
Assay: percent Bodipy-positive cells; higher = more lipid droplet accumulation
Settings: 48 h
[1] = library stock concentration: 10 mM
[2] = library stock concentration: 3.33 mM
[3] = library stock concentration: 2 mM

## COc1ccc(CC2c3cc(OC)c(OC)cc3CCN2C)cc1OC (racemic) [Laudanosine (R,S)]
  percent Bodipy-positive cells: 32 ± 2.7%

## C/C(O)=C(\C#N)C(=O)Nc1cc(Br)ccc1Br
[1]
  percent Bodipy-positive cells: 6.94 ± 0.71%

## Cc1ccccc1-n1c(Cn2ncc3c(N)ncnc32)nc2cccc(C)c2c1=O
[2]
  percent Bodipy-positive cells: 7.95 ± 4.3%
[1]
  percent Bodipy-positive cells: 11.5 ± 0.9%

## O=C1C=C2C(=CCOC2O)O1 (stereo not given) [Patulin]
[1]
  percent Bodipy-positive cells: 96.3 ± 1.5%

## CCC1(C)CC(=O)NC(=O)C1 [Bemegride]
  percent Bodipy-positive cells: 6.09 ± 2.5%
[2]
  percent Bodipy-positive cells: 6.42 ± 2.2%
[1]
  percent Bodipy-positive cells: 21.2 ± 5.3%

## C[C@@]12C(=O)OC(=O)[C@]1(C)[C@H]1CC[C@@H]2O1 [Cantharidin]
  percent Bodipy-positive cells: 100%
[1]
  percent Bodipy-positive cells: 100% and 98.7%
Library stock concentration: 25.5 mM
  percent Bodipy-positive cells: 98.5 ± 2.1%

## COC(C)(C)CCC[C@H](C)C/C=C/C(C)=C/C(=O)OC(C)C [Methoprene (s)]
[1]
  percent Bodipy-positive cells: 37.4 ± 2.8%

## CCCCC/C=C\C/C=C\C/C=C\C/C=C\CCCC(=O)NC1CC1 [Arachidonoyl Cyclopropylamide]
Library stock concentration: 1 mM
  percent Bodipy-positive cells: 10.4 ± 3.3%

## CCCC(C)(COC(N)=O)COC(=O)NC(C)C (stereo not given) [Carisoprodol]
  percent Bodipy-positive cells: 43.3 ± 15%
Library stock concentration: 7.7 mM
  percent Bodipy-positive cells: 2.66 ± 2.1%
[1]
  percent Bodipy-positive cells: 8.85 ± 1.4%

## C#CC(C)(O)CC (stereo not given)
[1]
  percent Bodipy-positive cells: 33.1 ± 9.4%

## O=C1C=C2C(C(C)=C1O)=CC=C3[C@]2(CCC4([C@@H]5C[C@@](CC[C@@]5(CC[C@]34C)C)([C@@](O)=O)C)C)C (stereo not given in full) [Celastrol]
[3]
  percent Bodipy-positive cells: 98.83 ± 0.14%
[1]
  percent Bodipy-positive cells: 97.3 ± 1.2%

## CN1C2CCC1CC(O)C2 (stereo not given) [Tropine]
  percent Bodipy-positive cells: 10.9 ± 3%

## COc1cc(OC)c(OC)cc1C=O [Asarylaldehyde]
[1]
  percent Bodipy-positive cells: 26.4 ± 4%

## COc1cc(OC)c(OC)cc1C=O [Asaraldehyde]
[2]
  percent Bodipy-positive cells: 9.48 ± 0.49%
[1]
  percent Bodipy-positive cells: 8.84 ± 0.92%

## C[N+]1(C)CCCC(OC(=O)C(O)(c2ccccc2)c2ccccc2)C1 (stereo not given) [Cantil]
[1]
  percent Bodipy-positive cells: 29.1 ± 2.5%

## C[N+]1(C)CCCC(OC(=O)C(O)(c2ccccc2)c2ccccc2)C1 (stereo not given) [Mepenzolate bromide]
  percent Bodipy-positive cells: 8.69 ± 0.82%
Library stock concentration: 4.8 mM
  percent Bodipy-positive cells: 3.23 ± 0.55%
[1]
  percent Bodipy-positive cells: 11 ± 1.3%

## COc1cc(N)c(Cl)cc1C(=O)NC1CN2CCC1CC2 (stereo not given) [Zacopride]
[1]
  percent Bodipy-positive cells: 19 ± 9.5%

## COc1cc(N)c(Cl)cc1C(=O)NC1CN2CCC1CC2 (stereo not given) [Zacopride hydrochloride]
[1]
  percent Bodipy-positive cells: 9.55 ± 2.8%

## Cc1sc2c(c1C)C(c1ccc(Cl)cc1)=NC(CC(N)=O)c1nnc(C)n1-2 (stereo not given)
[2]
  percent Bodipy-positive cells: 45.2 ± 5.2%
[1]
  percent Bodipy-positive cells: 49.7 ± 3.6%

## OC(c1ccccc1)(c1ccccc1)C1CCNCC1 [Azacyclonol]
  percent Bodipy-positive cells: 65.5 ± 10%
[2]
  percent Bodipy-positive cells: 12 ± 3.8%
[1]
  percent Bodipy-positive cells: 74.4 ± 15%

## N[C@@H]1C[C@H]1c1ccccc1.N[C@H]1C[C@@H]1c1ccccc1 [Tranylcypromine sulfate]
Library stock concentration: 8.6 mM
  percent Bodipy-positive cells: 12.8 ± 2.5%
[1]
  percent Bodipy-positive cells: 24.4 ± 7%

## N[C@@H]1C[C@H]1c1ccccc1.N[C@H]1C[C@@H]1c1ccccc1 [Tranylcypromine]
Library stock concentration: 80 uM
  percent Bodipy-positive cells: 34 ± 2.2%
Library stock concentration: 400 uM
  percent Bodipy-positive cells: 37.52 ± 0.14%
[3]
  percent Bodipy-positive cells: 44.7 ± 1.6%
[1]
  percent Bodipy-positive cells: 42.17 ± 0.14%
Library stock concentration: 15 mM
  percent Bodipy-positive cells: 10.5 ± 0.96%

## NC1CCc2cc(O)c(O)cc2C1 (stereo not given)
Library stock concentration: 27.9 mM
  percent Bodipy-positive cells: 21.2 ± 4.5%

## NC1CCc2cc(O)c(O)cc2C1 (stereo not given) [6,7-ADTN hydrobromide]
[1]
  percent Bodipy-positive cells: 37.2 ± 16%

## COc1ccc2[nH]cc(C3=CCNCC3)c2c1.COc1ccc2[nH]cc(C3=CCNCC3)c2c1.O=C(O)CCC(=O)O
[1]
  percent Bodipy-positive cells: 96.1 ± 2.5%

## COc1ccc(CNC(=O)/C=C/c2ccc3[nH]cc(CCN(C)C)c3c2)cc1
[1]
  percent Bodipy-positive cells: 95.2 ± 0.93%
